The record followed here is patent publication US20250243243A1, “DISRUPTION OF SONIC HEDGEHOG-SURF4 INTERACTION FOR CANCER TREATMENT” (The Hong Kong University of Science and Technology, priority 2022, published 2025).

Chains of the proteins cited; added tags and fusions are not shown. Lines headed by an entry give the natural chain unless they say otherwise; changes in a name come on top. Residues count along the entry.
UniProt O15260: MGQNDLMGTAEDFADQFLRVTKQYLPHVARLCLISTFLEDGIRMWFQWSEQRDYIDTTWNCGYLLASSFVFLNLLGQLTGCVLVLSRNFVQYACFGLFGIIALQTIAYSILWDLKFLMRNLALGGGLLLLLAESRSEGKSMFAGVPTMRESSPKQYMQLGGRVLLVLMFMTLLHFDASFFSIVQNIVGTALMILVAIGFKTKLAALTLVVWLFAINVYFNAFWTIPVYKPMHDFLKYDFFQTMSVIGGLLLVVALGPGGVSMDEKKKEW
UniProt P01344, residues 25-180: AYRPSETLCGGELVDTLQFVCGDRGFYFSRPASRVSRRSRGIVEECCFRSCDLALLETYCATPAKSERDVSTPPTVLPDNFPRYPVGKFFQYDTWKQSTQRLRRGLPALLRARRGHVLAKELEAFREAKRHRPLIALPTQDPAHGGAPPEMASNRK

No constants are given. Whether binding was seen depends on the method and setting. Binding seen in cells or lysates may run through a third protein.

One test addresses SURF4-HA (human) (UniProt O15260). The test is described as follows: GST pull-down from lysate of HEK293T cells expressing SURF4-HA, anti-HA immunoblot. For orientation: Immunoblotting shows a protein as a band on a membrane.
The target of another test is IGF2-HA (human) (UniProt P01344). The test is described as follows: co-immunoprecipitation on anti-HA beads after DSP cross-linking, HEK293T cells, anti-Myc immunoblot.

For GST (from UniProt P08515 1-218), the binding entry with SURF4-HA (human) is recorded as “no binding”. As to “SURF4-Myc (from UniProt O15260 2-269) (receptor)”, the binding entry with IGF2-HA (human) is listed as “no binding”.
